In PubChem BioAssay AID1671190 (National Center for Advancing Translational Sciences (NCATS), 2021):
The whole screen tested about 580,000 compounds, of which about 6,100 (1.1%) were called active. Inconclusive results, whose numbers are uncertain, are shown with a selection of clear calls. Calls follow the shape of the dose curve; as a rule, active = well fitted inhibition curve with a large enough effect; inconclusive = small, poorly fitted or top-dose-only effect, or another doubt; inactive = no such curve, though single readings can be large or run the other way. A potency beside an inconclusive call is a rough fit, not a confirmed value.

Chains of the proteins cited; added tags and fusions are not shown. Lines headed by an entry give the natural chain unless they say otherwise; changes in a name come on top.
UniProt P18054: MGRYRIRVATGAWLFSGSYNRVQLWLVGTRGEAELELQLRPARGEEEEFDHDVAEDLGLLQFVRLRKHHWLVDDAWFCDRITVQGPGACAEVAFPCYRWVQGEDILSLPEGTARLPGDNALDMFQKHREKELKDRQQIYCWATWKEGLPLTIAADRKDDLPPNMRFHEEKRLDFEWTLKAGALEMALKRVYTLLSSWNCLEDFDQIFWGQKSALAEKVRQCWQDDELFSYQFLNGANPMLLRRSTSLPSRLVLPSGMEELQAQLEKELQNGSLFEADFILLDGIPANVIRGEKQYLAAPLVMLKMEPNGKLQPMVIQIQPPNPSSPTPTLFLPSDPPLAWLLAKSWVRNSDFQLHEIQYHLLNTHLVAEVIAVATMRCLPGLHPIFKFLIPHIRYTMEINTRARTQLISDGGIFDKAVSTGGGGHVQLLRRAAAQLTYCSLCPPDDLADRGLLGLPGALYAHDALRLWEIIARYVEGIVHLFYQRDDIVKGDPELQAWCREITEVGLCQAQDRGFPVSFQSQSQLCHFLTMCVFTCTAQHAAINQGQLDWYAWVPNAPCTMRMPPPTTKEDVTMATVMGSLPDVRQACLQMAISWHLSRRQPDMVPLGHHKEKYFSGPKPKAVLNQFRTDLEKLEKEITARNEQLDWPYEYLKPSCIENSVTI

Target: Polyunsaturated fatty acid lipoxygenase ALOX12 (Homo sapiens) (UniProt P18054)
Assay: Primary qHTS assay for inhibitors of human arachidonate 12S-lipoxygenase (ALOX12): Round 2
Details: purified 12hLO, xylenol orange hydroperoxide absorbance; series mostly up to 108 µM
In short: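 Hydroperoxide product was detected by ferrous iron/xylenol orange as the 573 to 405 nm absorbance ratio. Arachidonic acid at 40 uM (final) was turned over for 30 min at room temperature by 150 nM human 12hLO, pH 7.0 Hepes buffer, after 15 min compound preincubation.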
Potency is read from the fitted curve at half-maximal effect.

Compound	Potency
COc1ccc(-c2nc3c(s2)CN(C(C(=O)O)c2c[nH]c4ccc(Br)cc24)CC3)cc1 (stereo not drawn)	inconclusive: 50.1 µM [inhibitor, partial curve, poor fit]
Cc1ccc(S(=O)(=O)N2[C@@H](c3ccc(Br)cc3)C(C(=O)O)=CC[C@H]2c2cccs2)cc1	inconclusive: 79.4 µM [inhibitor, partial curve, poor fit]
COc1ccccc1NS(=O)(=O)c1ccc2oc(=S)[nH]c2c1	inconclusive: 79.4 µM [inhibitor, partial curve, poor fit]
O=C(Cc1c(Cl)cccc1Cl)OCc1cccc([N+](=O)[O-])c1	inconclusive: 0.398 µM [inhibitor, full curve, poor fit]
Cn1c(=O)c2[nH]c(SCCN3CCOCC3)nc2n(C)c1=S	active: 31.6 µM
Cc1cc2c(c(=O)o1)C(C13C=CC(CC1)C3)C(C#N)=C(N)O2 (stereo not drawn)	inconclusive: 14.1 µM [inhibitor, partial curve, poor fit]
COc1ccc(C2CC(=O)Nc3ccsc32)cc1OCC(N)=O (stereo not drawn)	inactive
C/C(=N\Nc1ccccc1)c1cccc([N+](=O)[O-])c1	active: 6.31 µM
CCOC(=O)CSc1ccc(C(=O)N2CCN(C)CC2)cc1[N+](=O)[O-]	inactive
Brc1cccc(-c2nc3cc4c(cc3[nH]2)OCCO4)c1	inconclusive: 50.1 µM [inhibitor, partial curve, poor fit]
O=C1CCCC(O)=C1N=Nc1ccc(Cl)c(Cl)c1	inconclusive: 50.1 µM [inhibitor, partial curve, poor fit]
CC(=O)Nc1cccc(NC(=O)c2cc(-c3ccccn3)nc3ccc(Cl)cc23)c1	inactive
COCCCNC(=O)CN1C(=O)COc2ccc(S(=O)(=O)N3CC(C)CC(C)C3)cc21 (stereo not drawn)	inactive
COc1ccc(C(c2nnnn2C(C)(C)C)N2CCN(C/C=C/c3ccccc3)CC2)cc1 (stereo not drawn)	inconclusive: 126 µM [inhibitor, single point]
O=C(Nc1cccc(F)c1)c1cnc(-c2ccc(F)cc2)nc1-c1ccncc1	inconclusive: 35.5 µM [inhibitor, partial curve]
O=C(CN1CCCCCC1)Nc1ccc(Oc2ccccc2)cc1	inactive
Cc1nc(NC(=O)/C=C/c2ccccc2)sc1C(=O)N1CCCCC1	inconclusive: 158 µM [inhibitor, partial curve, poor fit]
CCOC(=O)CC(=O)Nc1ccc(Br)cc1C(=O)O	inactive
CCC1CCCCN1S(=O)(=O)c1c(C)n(C)c(=O)n(C)c1=O (stereo not drawn)	inconclusive: 5.01 µM [inhibitor, full curve, poor fit]
Cc1cc(C)nc(NCCO)n1	inactive
COc1cccc2c(=O)n(CC(=O)Nc3ccc(F)cc3)ccc12	inconclusive: 112 µM [inhibitor, single point]
O=C(NCC(c1ccccc1)c1c[nH]c2ccccc12)c1cccs1 (stereo not drawn)	inactive
O=C(Cc1ccc(Cl)c(Cl)c1)Nc1ccc(S(=O)(=O)Nc2ncccn2)cc1	inactive

Compound	Potency
O=C(NCCCNc1ccnc2cc(Cl)ccc12)c1ccccc1F	inconclusive: 35.5 µM [inhibitor, partial curve, poor fit]
C[C@H](CO)N1C[C@H](C)[C@@H](CN(C)S(C)(=O)=O)Oc2ccc(NC(=O)Nc3ccc4c(c3)OCO4)cc2C1=O	inconclusive: 44.7 µM [inhibitor, partial curve, poor fit]
COc1ccc(Cc2nnc(NC(=O)Nc3ccc(F)cc3)s2)cc1OC	inactive
O=C(Cc1cccc(C(F)(F)F)c1)NCc1cccc(Cl)c1	inconclusive: 3.16 µM [inhibitor, full curve, poor fit]
O=C1NC(C(=O)NC2CC2)Cn2cccc21 (stereo not drawn)	inconclusive: 17.8 µM [inhibitor, partial curve]
CN(C)c1ccc(/C=N\Nc2ccccn2)cc1	inconclusive: 100 µM [inhibitor, single point]
COc1ccc(-c2noc(CCCOc3ccccc3)n2)cc1OC	inconclusive: 7.08 µM [inhibitor, partial curve, poor fit]
CCC(=O)N1c2ccccc2CC1C(=O)NCCCN1CCN(c2cc(C)ccc2C)CC1 (stereo not drawn)	inactive
COc1ccc(OC)c(-c2oc3ccccc3c(=O)c2O)c1	inconclusive: 1.78 µM [inhibitor, full curve, poor fit]
COc1cc(/C=C2\SC(=S)N(NS(=O)(=O)c3ccccc3)C2=O)ccc1O	inconclusive: 100 µM [inhibitor, single point]
C/C(=N\Nc1ccc(C(=O)O)cc1)c1ccc(Br)cc1	inconclusive: 44.7 µM [inhibitor, partial curve]
O[C@@H]1CO[C@H]2[C@@H]1OC[C@@H]2n1nnnc1SCc1ccco1	inconclusive: 112 µM [inhibitor, single point]
COc1ccc(-c2nc3c(c(=O)[nH]c(=O)n3Cc3ccccc3)n2CC2CCCO2)cc1 (stereo not drawn)	inconclusive: 89.1 µM [inhibitor, single point]
C/C(N)=C(/C#N)C(=O)COC(=O)CCSc1ccccc1Cl	inconclusive: 44.7 µM [inhibitor, partial curve, poor fit]
NC(=O)c1oc2ccccc2c1NC(=O)c1ccco1	inconclusive: 112 µM [inhibitor, single point]
COc1ccc(Cn2c(-c3ccc(Cl)cc3)nc(C)c(CCO)c2=O)cc1F	inconclusive: 10 µM [inhibitor, full curve, poor fit]
CC(C)c1ccc(C2/C(=C(\O)c3ccc4c(c3)OCCO4)C(=O)C(=O)N2c2nccs2)cc1 (stereo not drawn)	active: 0.794 µM
CC(=O)C1=C(C)NC(SCC(=O)c2ccc(Cl)cc2)=C(C#N)C1c1ccco1 (stereo not drawn)	inconclusive: 25.1 µM [inhibitor, partial curve]
O=C(CN1C(=O)NC(c2ccc(Cl)cc2)C2=C1COC2=O)Nc1ccc(C(F)(F)F)cc1 (stereo not drawn)	active: 8.91 µM
Cc1cccc(C)c1OCc1cc(=O)n2c(-c3ccccc3)csc2n1	inconclusive: 39.8 µM [inhibitor, partial curve, poor fit]
Cc1noc(C)c1CSCC(=O)N(C)CC(=O)Nc1ccc(F)c(F)c1F	inconclusive: 2.82 µM [inhibitor, partial curve, poor fit]
CCOC(=O)Cc1csc(SCC(=O)NC2CCC(C(C)(C)CC)CC2)n1 (stereo not drawn)	inactive
Cc1c(CCO)c(=O)n(-c2ccccc2)n1S(=O)(=O)c1ccc(Cl)cc1	inconclusive: 35.5 µM [inhibitor, partial curve, poor fit]

Some of the entries so far, in markdown:

| Compound | Potency |
| --- | --- |
| O[C@@H]1CO[C@H]2[C@@H]1OC[C@@H]2n1nnnc1SCc1ccco1 | inconclusive: 112 µM [inhibitor, single point] |
| COc1ccc(-c2nc3c(c(=O)[nH]c(=O)n3Cc3ccccc3)n2CC2CCCO2)cc1 (stereo not drawn) | inconclusive: 89.1 µM [inhibitor, single point] |
| C/C(N)=C(/C#N)C(=O)COC(=O)CCSc1ccccc1Cl | inconclusive: 44.7 µM [inhibitor, partial curve, poor fit] |
| NC(=O)c1oc2ccccc2c1NC(=O)c1ccco1 | inconclusive: 112 µM [inhibitor, single point] |
| COc1ccc(Cn2c(-c3ccc(Cl)cc3)nc(C)c(CCO)c2=O)cc1F | inconclusive: 10 µM [inhibitor, full curve, poor fit] |
| CC(C)c1ccc(C2/C(=C(\O)c3ccc4c(c3)OCCO4)C(=O)C(=O)N2c2nccs2)cc1 (stereo not drawn) | active: 0.794 µM |

(listing goes on)

Compound	Potency
CCCOc1ccc(-c2nc(C#N)c(NCC3CCCO3)o2)cc1 (stereo not drawn)	inactive
CC[C@@]1(C(=O)OC)N[C@H](CN(C)C(=O)COC)[C@@H]2C(=O)N(C)C(=O)[C@@H]21	active: 5.01 µM
CCOc1ccc(C(=O)N2c3ccccc3NC(=O)C2CC(=O)Nc2cccc(C(F)(F)F)c2)cc1 (stereo not drawn)	inactive
COC(=O)C1=C(C)N(Cc2ccc(Cl)cc2)C(=S)NC1c1ccc(F)cc1 (stereo not drawn)	active: 39.8 µM
CCOC(=O)COc1ccc(/C=N/NC(=O)C(O)(c2ccccc2)c2ccccc2)cc1	inconclusive: 35.5 µM [inhibitor, single point]
Cc1ccc(CNC(=O)CS(=O)(=O)Cc2nc(-c3ccccc3F)oc2C)cc1	inactive
O=C(O)C(c1c[nH]c2cc(Cl)ccc12)N1CCN(c2ccc(F)cc2)CC1 (stereo not drawn)	inconclusive: 0.447 µM [inhibitor, full curve, poor fit]
COc1ccc(-c2cc(C(=O)N3CCCCC3)c3cccc(C)c3n2)cc1	inconclusive: 112 µM [inhibitor, single point]
CC(C)(C)c1ccc(OCC(=O)OCCNC(=O)c2cccnc2)cc1	inconclusive: 35.5 µM [inhibitor, single point]
CCOC(=O)C1=C(C)NC(C)=C(C(=O)OCC)C1/C=C/c1ccccc1OC	inactive
COc1ccc(C(=O)N2CCC3(CC2)NC(=O)N(c2cccc(F)c2)N3)cc1F	active: 2 µM
CC(NC(=O)C(C)N1CCN(S(=O)(=O)c2ccccc2)CC1)c1ccccc1 (stereo not drawn)	inconclusive: 112 µM [inhibitor, single point]
COc1ccc2nc(NC(=O)c3nc(S(=O)(=O)Cc4ccccc4)ncc3Cl)sc2c1	inactive
CC(C)(C)c1cc(C[C@@H]2CC[C@H](O)[C@@H](CN(CC3CC3)CC3CC3)O2)no1	inactive
CCCCOCCCNC(=O)C[C@H]1C[C@@]2(C(=O)OC)C(=C[C@H](COCc3ccccc3)O[C@@H]2C)N(Cc2ccc3c(c2)OCO3)C1=O	inactive
CC(=O)N1CCN(c2ccc(N3CCN(Cc4ccccc4)[C@@H](C)C3)c(C)c2)[C@@H](C)C1	inconclusive: 44.7 µM [inhibitor, partial curve, poor fit]
COc1ccc(-c2c(-c3ccc(S(C)(=O)=O)cc3)sc3ccc(OC)cc23)cc1	inactive
CCCCCCCCCCCCCCCC[n+]1ccc(C(N)=O)cc1	active: 44.7 µM
Cc1ccc(Nc2nc(N)c([N+](=O)[O-])c(NCc3ccco3)n2)cc1C	inconclusive: 8.91 µM [inhibitor, full curve, poor fit]
C=CCSc1nc2ccccc2n1S(=O)(=O)c1ccc(C)cc1	inconclusive: 10 µM [inhibitor, partial curve, poor fit]
CCC(C(=O)Nc1nnc2n1CCS2)c1ccccc1 (stereo not drawn)	inactive
CCCOc1ccc(C2Nc3cccc4cccc(c34)N2)cc1	inconclusive: 15.8 µM [inhibitor, partial curve, poor fit]
